The target in test [1] is Human AXL-Fc (R&D Systems, #154-AL) (human) (UniProt P30530). Nature of the test: ELISA, human AXL-Fc coated plate, antibody 1 µg/ml to 0.00256 ng/ml.
Test [2] shares this target. Nature of the test: ELISA on plate-adsorbed human AXL-Fc (1 ug/ml), 5-fold antibody dilution series, AP-conjugated goat anti-human IgG, fluorescent substrate (Example 13).

Sequences of proteins named here, by UniProt entry; tags and fusion partners are left off. A change or cut given only in a name is not applied to a line headed by its entry.
UniProt P30530: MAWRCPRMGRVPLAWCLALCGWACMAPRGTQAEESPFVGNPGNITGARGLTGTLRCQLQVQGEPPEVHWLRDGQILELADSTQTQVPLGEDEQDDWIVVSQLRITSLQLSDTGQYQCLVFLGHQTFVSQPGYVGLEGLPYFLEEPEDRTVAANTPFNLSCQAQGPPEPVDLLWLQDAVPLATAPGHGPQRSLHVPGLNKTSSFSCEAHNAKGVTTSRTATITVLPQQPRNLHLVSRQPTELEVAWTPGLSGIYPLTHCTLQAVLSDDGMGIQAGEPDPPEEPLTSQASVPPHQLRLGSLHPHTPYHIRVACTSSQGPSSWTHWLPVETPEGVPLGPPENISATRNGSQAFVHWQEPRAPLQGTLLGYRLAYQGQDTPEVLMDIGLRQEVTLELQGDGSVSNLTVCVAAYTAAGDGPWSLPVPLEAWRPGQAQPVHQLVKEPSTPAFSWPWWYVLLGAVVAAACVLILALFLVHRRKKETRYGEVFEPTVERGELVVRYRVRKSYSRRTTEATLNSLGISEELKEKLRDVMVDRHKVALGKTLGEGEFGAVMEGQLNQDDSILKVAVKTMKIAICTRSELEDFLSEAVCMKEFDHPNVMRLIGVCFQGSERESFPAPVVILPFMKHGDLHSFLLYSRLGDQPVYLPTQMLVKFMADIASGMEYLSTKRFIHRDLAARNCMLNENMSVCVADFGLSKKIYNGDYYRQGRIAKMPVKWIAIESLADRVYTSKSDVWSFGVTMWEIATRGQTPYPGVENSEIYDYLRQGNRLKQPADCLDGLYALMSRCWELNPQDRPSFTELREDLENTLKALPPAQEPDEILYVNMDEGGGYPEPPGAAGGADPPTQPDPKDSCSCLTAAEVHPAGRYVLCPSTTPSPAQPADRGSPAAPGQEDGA

Results are given in words; binding and its absence hold for the method and conditions named. Some results given as binding are weak or reduced against the parent protein; the word gives no strength.

B1: h#11B7-T7 (antibody, human IgG1, kappa, V domains shown)
VH: QVQLQESGPGLVKPSETLSLTCTVSGYSITSNYWGWIRQPPGKGLEWIGYITYSGSTSYNPSLKSRVSISRDTSKNQFSLKLSSVTAADTAVYYCAITTFYYWGQGTLVTVSS
VL: DIQMTQSPSSLSASVGDRVTITCRASQDIGNYLRWYQQKPGKAPKLMISGATNLAAGVPSRFSGSGSGSDYTLTISSLQPEDFATYYCLQSKESPWTFGQGTKVEIKR
For the molecule B1, the binding result in test [1] and in test [2] was “binds” each time.

B2: h#11B7-T10 (antibody, human IgG1, kappa, V domains shown)
VH: QVQLQESGPGLVKPSETLSLTCTVSGYSITSNYWGWIRQPPGKGLEWIGYITYSGSTSYNPSLKSRVSISRDTSKNQFSLKLSSVTAADTAVYYCAITTFYYWGQGTLVTVSS
VL: DIQMTQSPSSLSASVGDRVTITCRASQDIGNYLRWYQQKPGKAPKLLISGATNLAAGVPSRFSGSGSGSDYTLTISSLQPEDFATYYCLQSKESPWTFGQGTKVEIKR
Consider B2, for which the binding entry in test [1] and in test [2] was “binds” in each case.

B3: h#11B7-T9 (antibody, human IgG1, kappa, V domains shown)
VH: QVQLQESGPGLVKPSETLSLTCTVSGYSITSNYWGWIRQPPGKGLEWIGYITYSGSTSYNPSLKSRVSISRDTSKNQFSLKLSSVTAADTAVYYCAITTFYYWGQGTLVTVSS
VL: DIQMTQSPSSLSASVGDRVTITCRASQDIGNYLRWFQQKPGKAPKLMISGATNLAAGVPSRFSGSGSGSDFTLTISSLQPEDFATYYCLQSKESPWTFGQGTKVEIKR
As for B3, the binding entry in test [1] and in test [2] was “binds” in each case.

B4: h#11B7-T20 (antibody, human IgG1, kappa, V domains shown)
VH: QVQLQESGPGLVKPSETLSLTCTVSGYSITSNYWGWIRQPPGKGLEWMGYITYSGSTSYNPSLKSRITISRDTSKNQFSLKLSSVTAADTAVYYCAITTFYYWGQGTLVTVSS
VL: DIQMTQSPSSLSASVGDRVTITCRASQDIGNYLRWYQQKPGKAPKLLISGATNLAAGVPSRFSGSGSGSDFTLTISSLQPEDFATYYCLQSKESPWTFGQGTKVEIKR
As for B4, the binding entry in test [1] and in test [2] was “binds” each time.

B5: h#11B7-T1 (antibody, human IgG1, kappa, V domains shown)
VH: QIQLQESGPGLVKPSQTLSLTCAVSGYSITSNYWGWIRQPPGKGLEWIGYITYSGSTSYNPSLKSRVTISVDTSKNQFSLKLSSVTAADTAVYYCAITTFYYWGQGTLVTVSS
VL: DIQMTQSPSSLSASVGDRVTITCRASQDIGNYLRWYQQKPGKAPKLLISGATNLAAGVPSRFSGTGSGTDFTFTISSLQPEDFATYYCLQSKESPWTFGGGTKVEIKR
As for B5, the binding entry in test [1] and in test [2] was “binds” each time.

B6: h#11B7-T8 (antibody, human IgG1, kappa, V domains shown)
VH: QVQLQESGPGLVKPSETLSLTCTVSGYSITSNYWGWIRQPPGKGLEWIGYITYSGSTSYNPSLKSRVSISRDTSKNQFSLKLSSVTAADTAVYYCAITTFYYWGQGTLVTVSS
VL: DIQMTQSPSSLSASVGDRVTITCRASQDIGNYLRWFQQKPGKAPKLLISGATNLAAGVPSRFSGSGSGSDYTLTISSLQPEDFATYYCLQSKESPWTFGQGTKVEIKR
As for B6, the binding entry in test [1] and in test [2] was “binds” each time.

B7: h#11B7-T14 (antibody, human IgG1, kappa, V domains shown)
VH: QVQLQESGPGLVKPSETLSLTCTVSGYSITSNYWGWIRQPPGKGLEWMGYITYSGSTSYNPSLKSRITISRDTSKNQFSLKLSSVTAADTAVYYCAITTFYYWGQGTLVTVSS
VL: DIQMTQSPSSLSASVGDRVTITCRASQDIGNYLRWYQQKPGKAPKLMISGATNLAAGVPSRFSGSGSGSDYTLTISSLQPEDFATYYCLQSKESPWTFGQGTKVEIKR
On to B7, for which the binding result in test [1] and in test [2] was “binds” in each case.

B8: h#11B7-T24 (antibody, human IgG1, kappa, V domains shown)
VH: QVQLQESGPGLVKPSETLSLTCTVSGYSITSNYWGWIRQPPGKGLEWIGYITYSGSTSYNPSLKSRVTISRDTSKNQFSLKLSSVTAADTAVYYCAITTFYYWGQGTLVTVSS
VL: DIQMTQSPSSLSASVGDRVTITCRASQDIGNYLRWYQQKPGKAPKLLISGATNLAAGVPSRFSGSGSGSDYTLTISSLQPEDFATYYCLQSKESPWTFGQGTKVEIKR
In the case of B8, the binding entry in test [1] and in test [2] was “binds” each time.

B9: h#11B7-T3 (antibody, human IgG1, kappa, V domains shown)
VH: QVQLQESGPGLVKPSQTLSLTCAVSGYSITSNYWGWIRKPPGDGLEWMGYITYSGSTSYNPSLKSRISITRDTSKNQFSLKLSSVTAADTAVYYCAITTFYYWGQGTLVTVSS
VL: DIQMTQSPSSLSASVGDRVTITCRASQDIGNYLRWFQQKPGKAPKLMISGATNLAAGVPSRFSGSRSGSDYTLTISSLQPEDFATYYCLQSKESPWTFGGGTKVEIKR
Turning to B9, the binding entry in test [1] and in test [2] was “binds” throughout.

B10: h#11B7-T26 (antibody, human IgG1, kappa, V domains shown)
VH: QVQLQESGPGLVKPSETLSLTCTVSGYSITSNYWGWIRQPPGKGLEWIGYITYSGSTSYNPSLKSRVTISRDTSKNQFSLKLSSVTAADTAVYYCAITTFYYWGQGTLVTVSS
VL: DIQMTQSPSSLSASVGDRVTITCRASQDIGNYLRWYQQKPGKAPKLMISGATNLAAGVPSRFSGSGSGSDFTLTISSLQPEDFATYYCLQSKESPWTFGQGTKVEIKR
Regarding B10, the binding result in test [1] and in test [2] was “binds” each time.

B11: h#11B7-T21 (antibody, human IgG1, kappa, V domains shown)
VH: QVQLQESGPGLVKPSETLSLTCTVSGYSITSNYWGWIRQPPGKGLEWIGYITYSGSTSYNPSLKSRVTISRDTSKNQFSLKLSSVTAADTAVYYCAITTFYYWGQGTLVTVSS
VL: DIQMTQSPSSLSASVGDRVTITCRASQDIGNYLRWYQQKPGKAPKLMISGATNLAAGVPSRFSGSGSGSDYTLTISSLQPEDFATYYCLQSKESPWTFGQGTKVEIKR
For the molecule B11, the binding entry in test [1] and in test [2] was “binds” throughout.

B12: h#11B7-T12 (antibody, human IgG1, kappa, V domains shown)
VH: QVQLQESGPGLVKPSETLSLTCTVSGYSITSNYWGWIRQPPGKGLEWIGYITYSGSTSYNPSLKSRVSISRDTSKNQFSLKLSSVTAADTAVYYCAITTFYYWGQGTLVTVSS
VL: DIQMTQSPSSLSASVGDRVTITCRASQDIGNYLRWYQQKPGKAPKLMISGATNLAAGVPSRFSGSGSGSDFTLTISSLQPEDFATYYCLQSKESPWTFGQGTKVEIKR
On to B12, for which the binding result in test [1] and in test [2] was “binds” throughout.

B13: h#11B7-T11 (antibody, human IgG1, kappa, V domains shown)
VH: QVQLQESGPGLVKPSETLSLTCTVSGYSITSNYWGWIRQPPGKGLEWIGYITYSGSTSYNPSLKSRVSISRDTSKNQFSLKLSSVTAADTAVYYCAITTFYYWGQGTLVTVSS
VL: DIQMTQSPSSLSASVGDRVTITCRASQDIGNYLRWFQQKPGKAPKLLISGATNLAAGVPSRFSGSGSGSDFTLTISSLQPEDFATYYCLQSKESPWTFGQGTKVEIKR
For B13, the binding result in test [1] and in test [2] was “binds” in each case.

B14: h#11B7-T16 (antibody, human IgG1, kappa, V domains shown)
VH: QVQLQESGPGLVKPSETLSLTCTVSGYSITSNYWGWIRQPPGKGLEWMGYITYSGSTSYNPSLKSRITISRDTSKNQFSLKLSSVTAADTAVYYCAITTFYYWGQGTLVTVSS
VL: DIQMTQSPSSLSASVGDRVTITCRASQDIGNYLRWFQQKPGKAPKLMISGATNLAAGVPSRFSGSGSGSDFTLTISSLQPEDFATYYCLQSKESPWTFGQGTKVEIKR
As for B14, the binding entry in test [1] and in test [2] was “binds” throughout.

B15: h#11B7-T13 (antibody, human IgG1, kappa, V domains shown)
VH: QVQLQESGPGLVKPSETLSLTCTVSGYSITSNYWGWIRQPPGKGLEWIGYITYSGSTSYNPSLKSRVSISRDTSKNQFSLKLSSVTAADTAVYYCAITTFYYWGQGTLVTVSS
VL: DIQMTQSPSSLSASVGDRVTITCRASQDIGNYLRWYQQKPGKAPKLLISGATNLAAGVPSRFSGSGSGSDFTLTISSLQPEDFATYYCLQSKESPWTFGQGTKVEIKR
Turning to B15, the binding entry in test [1] and in test [2] was “binds” in each case.

B16: h#11B7-T19 (antibody, human IgG1, kappa, V domains shown)
VH: QVQLQESGPGLVKPSETLSLTCTVSGYSITSNYWGWIRQPPGKGLEWMGYITYSGSTSYNPSLKSRITISRDTSKNQFSLKLSSVTAADTAVYYCAITTFYYWGQGTLVTVSS
VL: DIQMTQSPSSLSASVGDRVTITCRASQDIGNYLRWYQQKPGKAPKLMISGATNLAAGVPSRFSGSGSGSDFTLTISSLQPEDFATYYCLQSKESPWTFGQGTKVEIKR
With B16, the binding result in test [1] and in test [2] was “binds” each time.

B17: h#11B7-T2 (antibody, human IgG1, kappa, V domains shown)
VH: QIQLQESGPGLVKPSQTLSLTCAVSGYSITSNYWGWIRQPPGKGLEWMGYITYSGSTSYNPSLKSRISISVDTSKNQFSLKLSSVTAADTAVYYCAITTFYYWGQGTLVTVSS
VL: DIQMTQSPSSLSASVGDRVTITCRASQDIGNYLRWFQQKPGKAPKLMISGATNLAAGVPSRFSGTGSGTDYTFTISSLQPEDFATYYCLQSKESPWTFGGGTKVEIKR
In the case of B17, the binding entry in test [1] and in test [2] was “binds” in each case.

B18: h#11B7-T23 (antibody, human IgG1, kappa, V domains shown)
VH: QVQLQESGPGLVKPSETLSLTCTVSGYSITSNYWGWIRQPPGKGLEWIGYITYSGSTSYNPSLKSRVTISRDTSKNQFSLKLSSVTAADTAVYYCAITTFYYWGQGTLVTVSS
VL: DIQMTQSPSSLSASVGDRVTITCRASQDIGNYLRWFQQKPGKAPKLMISGATNLAAGVPSRFSGSGSGSDFTLTISSLQPEDFATYYCLQSKESPWTFGQGTKVEIKR
Turning to B18, the binding result in test [1] and in test [2] was “binds” throughout.

B19: h#11B7-T17 (antibody, human IgG1, kappa, V domains shown)
VH: QVQLQESGPGLVKPSETLSLTCTVSGYSITSNYWGWIRQPPGKGLEWMGYITYSGSTSYNPSLKSRITISRDTSKNQFSLKLSSVTAADTAVYYCAITTFYYWGQGTLVTVSS
VL: DIQMTQSPSSLSASVGDRVTITCRASQDIGNYLRWYQQKPGKAPKLLISGATNLAAGVPSRFSGSGSGSDYTLTISSLQPEDFATYYCLQSKESPWTFGQGTKVEIKR
Consider B19, for which the binding result in test [1] and in test [2] was “binds” each time.

These data come from US20120117670A1.
